# Results as given in PubChem BioAssay AID1347426 (Functional Genomics Laboratory (NCATS/FGL), 2020).
# Screen size: about 31,000 sequences; about 1,400 (4.5%) were called active.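 Rule for the calls: active = median seed-adjusted z-score above 1 or below -1; inactive = the rest.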 This is one part of the list.
# Assay: Novel Modifiers of Survival Motor Neuron (SMN) Protein: Gene Identification via Genome-wide siRNA Screen;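 note: luminescence tracks full-length SMN protein made from the SMN2 reporter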
# Details: HEK293T SMN2-luciferase reporter, siRNA knockdown, 72 h; actives lie on both sides
# Method in brief: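 HEK293T cells stably expressing an SMN2 splicing/cDNA-luciferase reporter were reverse-transfected with a druggable-genome siRNA library and read by luminescence at 72 hours; hits defined by MAD score above 1.0 or below -1.0.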
row,Sequence,median seed-adjusted z-score
1,AAAGGAAUUGGGAACUGUATT against CALM2,inactive: 0.127
2,CGGAAAACCUGCAAUCCUATT against PIK3C2B,inactive: -0.653
3,GCUCAGAUAAAGUACAGAATT against GGCX,inactive: -0.362
4,CUGCAGUUGUGGUUGGAUATT against AOF2,inactive: -0.215
5,AAUACGUGGAAGAAUCUAATT against LETM1,inactive: -0.491
6,GGAUGAUCUUGUAACUCGATT against STX8,inactive: 0.475
7,CUAUUGCAGGUUUGACUAUTT against PGM5,inactive: -0.0543
8,CAUCAAUUCUUCGACAGGATT against PPP3CA,inactive: 0.74
9,GAAUGUGGUUUUUGUUAUUTT against ITIH5L,inactive: -0.407
10,GCACCUUUAUCGCAAGUAUTT against CSGALNACT1,inactive: -0.235
11,CGAGUAUACAGUAUACAGATT against CHAF1B,inactive: 0.634
12,GCAAUUGUCUGAUUAAUCATT against MB,inactive: 0.504
13,GAAACGUGGUGAGACCUCATT against PRKX,inactive: 0.0341
14,GAGUUUGGAAAGUUACUAATT against EIF3J,inactive: -0.411
15,CCGCUGGAAAUAUCACUUUTT against GCNT3,inactive: 0
16,GAGUCGAGAAGAUAAUGGATT against RABGEF1,inactive: 0.278
17,GGCUAUCUUGGAUGCAGAATT against TBC1D10A,inactive: -0.722
18,AAUUCUUCGUCAAAGUCUATT against TRNAU1AP,inactive: 0.52
19,GCAGCUGCCCAAACAGUUUTT against CRTC2,inactive: -0.691
20,GGAAGAUCUUGGACUUAUUTT against JARID1B,inactive: 0
21,GACCCUCACUAGUAAACUUTT against GBP3,inactive: -0.864
22,GACGAGCUGUUCGACGUAATT against COPE,inactive: 0.499
23,CGAUGCACCUGUACGAUCATT against IL1B,inactive: -0.21
24,ACCGAGACCUCAAACCUGATT against PSKH1,active: -2.03
25,GGAAUAACAGUUGUAGGAATT against TMTC3,inactive: 0.266
26,GGACCACCUAUGGACUAUATT against RBM6,inactive: 0.193
27,GUUCUACCGUGGACAGCAATT against CLCN1,inactive: 0.314

# Fetched one by one from the entries so far:
row,Sequence,median seed-adjusted z-score
2,CGGAAAACCUGCAAUCCUATT against PIK3C2B,inactive: -0.653
7,CUAUUGCAGGUUUGACUAUTT against PGM5,inactive: -0.0543

# Next part.

row,Sequence,median seed-adjusted z-score
1,GCAUCCGCAACUUCACUGATT against SLC7A4,inactive: -0.102
2,CAUACGCAGAACAAAGUUATT against KHDRBS1,inactive: 0.0916
3,CAUUGACCGCACAAACUUUTT against ACYP2,inactive: 0.286
4,CCAAUGUGCUGUUCGCCUATT against ZNHIT2,inactive: -0.339
5,CAAACCAGUUAAUCCAGAATT against ALK,inactive: 0.0139
6,CAGUUAUGGUCUAACCAUUTT against CYP1B1,inactive: -0.261
7,AAAAUGUCUUGAGAAGAUATT against EIF2S2,inactive: 0.576
8,AGAAGUCUGUUGCUAUGCATT against GNB5,inactive: -0.535
9,GUGUUGACAUGAGUACCAATT against ARAF,inactive: 0.535
10,GAAAUACUGUCGGACAGAATT against MAN1C1,inactive: -0.548
11,GAUGGAACCGUUUACAAUATT against RPE65,inactive: -0.655
12,GCUGGGAACCUACUCAUUATT against PAQR6,inactive: 0.632
13,GUAUCACGCAGUUACCAAATT against GSR,inactive: -0.467
14,GAUCAUGGAUUAGAACUGUTT against MOGAT1,inactive: 0.293
15,GGGUUGAGCUCCAAAGAAUTT against B4GALT4,inactive: -0.0479
16,GUUACUUCCGAAUCCAUGATT against ZNF627,inactive: 0.204
17,CCUUUUCCUGUAGAUCAAATT against BACH2,inactive: 0
18,GCUUUGCAGUGAAUAUCGATT against SPINK5,inactive: 0.26
19,GCAAUGUGAACAACCCUAUTT against CAPN6,inactive: 0.0288
20,GGACUGGAAUUUUGAGAGATT against PLSCR1,inactive: 0.661
21,ACACGCUCAUUUCAUCACATT against PET112L,inactive: 0.235
22,AAACGAUUUUUACUCAUAUTT against PDCD2,inactive: -0.232
23,CCGUCGAAUUUGAAGGUGATT against SULF1,inactive: -0.128
24,CCUUGUCUGUGCUCAAGUATT against USP35,inactive: -0.219
25,CAUUCGCAAUGUCUCCUGUTT against GPR114,inactive: 0.805
26,GACCUUGACUUUGAUAUCATT against MPHOSPH10,inactive: 0.374
